Results as given in patent US11395489B2, “Microbiocidal picolinamide derivatives” (Syngenta Participations AG, priority 2017, dated 2022).
Some entries share one result that the patent states for a list of compounds.

The compounds below were run on Blumeria graminis f. sp. tritici (Erysiphe raminis f. sp. tritici) (assay: Blumeria graminis f. sp. tritici / wheat / leaf disc preventative (Powdery Mildew on Wheat)). Conditions: 200 ppm in the formulation, compared to untreated, 6-8 days after application.
Format: in vivo
`COc1ccnc(C(=O)N[C@@H](C)C(=O)OC(C)C2(c3ccc(Cl)cc3)CCC2)c1O` (stereo partly drawn) [I.k.012, 1-[1-(4-chlorophenyl)-cyclobutyl]ethyl (2S)-2-((3-hydroxy-4-methoxy-pyridine-2-carbonyl)-amino]propanoate] was tested, and the disease control was “at least 80%”.
`COc1ccnc(C(=O)N[C@@H](C)C(=O)OC(C)C2(c3ccc(Cl)cc3)CCCCC2)c1O` (stereo partly drawn) [I.k.015, 1-[1-(4-chlorophenyl)-cyclohexyl]ethyl (2S)-2-[(3-hydroxy-4-methoxy-pyridine-2-carbonyl)amino]propanoate] was tested, and the disease control was “at least 80%”.
In the case of `COc1ccnc(C(=O)N[C@@H](C)C(=O)OC(C)C2(c3ccc(Br)cc3)CCC2)c1O` (stereo partly drawn) [I.m.012, 1-[1-(4-bromophenyl)-cyclobutyl]ethyl (2S)-2-[(3-hydroxy-4-methoxy-pyridine-2-carbonyl)amino]propanoate], the disease control was “at least 80%”.
